Results reported in paper PMC8024263.
No constants are given. Whether binding was seen depends on the method and setting. Binding seen in cells or lysates may run through a third protein.

Protein sequences, listed by entry. Tags and fused reporters are not part of them.
UniProt P60766: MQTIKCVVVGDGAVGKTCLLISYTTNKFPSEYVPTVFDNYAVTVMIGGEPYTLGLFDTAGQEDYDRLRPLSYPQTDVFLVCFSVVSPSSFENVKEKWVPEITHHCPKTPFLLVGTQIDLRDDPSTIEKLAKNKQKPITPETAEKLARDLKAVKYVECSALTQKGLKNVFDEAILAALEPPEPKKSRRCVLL

Molecular target: T1, Cellular repressor of E1A-stimulated genes (CREG) (mouse (endogenous in 3T3 fibroblasts)) (UniProt O88668)
T1 sequence: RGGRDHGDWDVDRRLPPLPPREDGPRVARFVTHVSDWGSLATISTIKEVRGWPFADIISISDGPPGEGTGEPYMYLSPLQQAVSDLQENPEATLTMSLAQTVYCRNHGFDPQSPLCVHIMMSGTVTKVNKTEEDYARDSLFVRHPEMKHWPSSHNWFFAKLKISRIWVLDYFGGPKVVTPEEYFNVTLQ
Assay: co-IP; protein of mouse 3T3 fibroblasts (1000 ug) incubated with CREG, CDC42 or IgG antibody and protein A/G beads overnight at 4 °C; beads washed 3 times; CREG and CDC42 detected by western blotting; both directions (Fig. 8H, I)

binding: no binding
Substance: cell division control protein 42 (CDC42) (from UniProt P60766 1-191)
